Library screening results

Results are given as percent effect. The record does not define 0% and 100%; most values in the screen are far below 50% and negative numbers occur (in some assays of this library far below -100). This is an unselected part of the compounds tested. A dash means the value is not listed here; it may have been measured.

A: 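Whole-cell assay for inhibitors of Mycobacterium tuberculosis growth, labelled Cornell in the record; the read-out is not stated. The concentration is filed as 10 mM, unlikely as a test dose, so the dose is not known. The record gives no direction; compounds strong in two other growth screens of this library score well above the rest, so higher reads as stronger inhibition. About 53,000 compounds were tested under these conditions; 1.7% (about 900) showed 50% or more at least once.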
B: 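Assay on Mycobacterium tuberculosis, filed only as a heat shock assay from Cornell; the read-out is not stated. The concentration is filed as 10 mM, unlikely as a test dose, so the dose is not known. Higher reads as stronger inhibition (inferred: compounds with an IC50 in retests scored well above the rest). About 69,000 compounds were tested under these conditions; 1.4% (about 930) showed 50% or more at least once.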

compound	A	B
CCN1C(=O)C2(CCOCC2)c2cc(NC(=O)c3cccn3C)ccc21	-8.485	7.619
COc1ccc(C(=O)Nc2cccc(SC)c2)c(OC)n1	-31.78	14.36
O=C(COc1ccc2c(c1)CCCC2=O)NCc1ccco1	-34.51	-5.582
Cc1cc(NC(=O)CN(C)C2CCCN(c3cccnn3)C2)on1 (configuration not stated)	0.4226	-66.48
Cc1cc(C)c(CNC(=O)N(C)CC2CCCCO2)c(=O)[nH]1 (configuration not stated)	-	-6.69
Cc1nc2c(c(NCC(c3ccccc3C)N(C)C)n1)CCNC2 (configuration not stated)	-26.34	-21.01
COCCN1C[C@H](NC(=O)CCC(F)(F)F)[C@@H](C(C)C)C1	16.71	7.055
O=C(NC1CCCNC1=O)c1ccc2nc(-c3ccc(F)cc3)cn2c1 (configuration not stated)	-	-2.907
Cc1nc(C)c2c(n1)CCN(C(=O)CC1CC1)CC2	-7.321	1.81
Cc1ccc(OC[C@@H]2CNC[C@H](C(=O)NCC3CCCO3)C2)cn1 (some centres not stated)	-	-2.167
[H][C@@]12CS(=O)(=O)C[C@]1([H])N(C(=O)NCc1ccc(OC)cc1)CCN2C	12.02	-3.172
Cc1noc(C)c1CN1CCN(Cc2cccnc2)c2ncccc2C1.O=C(O)C(F)(F)F.O=C(O)C(F)(F)F.O=C(O)C(F)(F)F	26.12	-7.939
CCn1ccnc1CN1CCC(N(Cc2ncc(C)o2)C(C)=O)C1 (configuration not stated)	11.73	9.924
Cc1cc(N2CCC(n3cc(CN4CCNCC4)nn3)CC2)ccn1	-5.333	-6.041
CCCN(C)CCC(=O)N1CCCC1Cn1cccn1 (configuration not stated)	-	-30.91
COc1ccc(CN(C)Cc2c(C)noc2C)c(Br)c1OC	5.738	-19.26
CN(Cc1ccc2c(c1)OCO2)C(=O)Cn1cccnc1=O	-15.31	-39.4
COCCN1CCOCC12CCN(C(=O)c1ccoc1)CC2.O=C(O)C(F)(F)F	20.11	-24.79
CCCn1ncc(C(=O)NC(C)c2c(C)nn(CC)c2C)c1C (configuration not stated)	-39.17	-5.258
O=C(O)C(F)(F)F.O=C(O)C(F)(F)F.[H][C@@]12C[C@@H](C(=O)NCC3CC3)C[C@@]1([H])N(Cc1cccnc1)CCO2	-16.05	-3.566
Cc1cnn(CC2CCCN2C(=O)c2sccc2C#N)c1 (configuration not stated)	-6.267	6.727
CC(Oc1cccc(Cl)c1)C(=O)Nc1cnn(CCN(C)C)c1 (configuration not stated)	-5.301	-12.53
CCc1nc(C2CCCN2C(=O)c2c[nH]c(C)n2)no1 (configuration not stated)	-	-10.7
Cc1cccc(N2CCC3(CCCC(=O)N3)CC2)n1.O=C(O)C(F)(F)F	29.05	-29.71
N#Cc1ccc(SCCC(=O)NC(N)=O)cc1	-	-109.3
CCCc1nc(C(C)(C)NC(=O)c2ccnn2C)no1	-	-3.19
Cn1cc(C(=O)Nc2ccc3c(c2)CN(C(=O)c2ccco2)CC3)nn1	27.01	10.87
CN(CCCc1cc(-c2ccccc2)no1)S(C)(=O)=O	-	2.668
NC1CCCCN(Cc2cc(-c3ccccc3OC(F)(F)F)no2)C1 (configuration not stated)	16.07	22.6
Cc1nccc(N[C@H]2CN(C(=O)C3(C#N)CCOCC3)C[C@@H]2C(C)C)n1	-23.11	-19.81
O=C(O)C(F)(F)F.[H][C@@]12COC[C@]1(COCC(=O)N(C)C)CN(Cc1csc(C)n1)C2	-	-21.91
COc1ccc(C)cc1NC(=O)Nc1cnc(N2CCOCC2)nc1	28.55	3.921
O=C(Cc1ccc(F)cc1)NCC(O)(c1cccs1)C1CC1 (configuration not stated)	-54.5	7.646
Cc1nn(C)c(N(C)C)c1CNCc1ccccc1Cn1ccnc1	-16.68	4.463
COc1cc(C(=O)NS(=O)(=O)c2cc(Cl)sc2Cl)ccc1OC(F)F	83.5	-14.59
Cc1cc(C(=O)Nc2ccc(OCCN3CCN(C)CC3)cc2)[nH]n1	1.054	4.948
Cc1cc(C(O)CCNC(=O)c2ccc(Cl)s2)c(C)o1 (configuration not stated)	42.43	42.49
CCC(CC)c1cc(C(=O)N2CCCC(n3cncn3)C2)on1 (configuration not stated)	-5.046	0.1907
CCn1nc(C)c2ncnc(NCC(=O)N3CCOCC3)c21	-	-12.17
CCNC(=O)N(CCCO)C1CCCc2ccccc21 (configuration not stated)	-16.01	-34.88
Fc1ccccc1C1(CNC2CCOC3(CCOCC3)C2)CCCC1 (configuration not stated)	16.79	-2.092
CC(C)C(=O)N1CCOC2(COCCN(c3ncccn3)C2)C1 (configuration not stated)	0.796	7.254
Oc1cccc(CNCCC2CCCO2)c1 (configuration not stated)	-	-46.65
CCC(=O)N1CCC(NC(=O)c2cccc(-n3ccnc3)c2)C1 (configuration not stated)	-	-11.15
CC(C(=O)O)N1CC2(CCC1=O)CCN(CCSc1ccccc1)CC2 (configuration not stated)	3.358	-34.53
CN1CCCN(C(=O)c2cnc(Cc3c(Cl)cccc3Cl)nc2O)CC1	21.58	6.876
COc1ccc(Oc2ccc(CNC(=O)C3CCS(=O)(=O)C3)cn2)cc1 (configuration not stated)	17.18	-17.76
Cn1ccnc1CN1CCC(Cn2cc(-c3ccccc3)nn2)CC1	-1.988	-26.51
CC(C)CCn1c(=O)nc2n1C(=O)N(c1ccc(F)cc1)C2	-13.22	4.203
NS(=O)(=O)CCNC(=O)c1ccc(-c2ccc(F)cc2)cc1F	19.37	13.89
Cc1nc(CNC(=O)C(C)(C)c2ccc(F)cc2)no1	-	-14.21
O=C(O)C(F)(F)F.[H][C@]12CCN(C(=O)c3ccc(OC)cc3)CC[C@@]1([H])S(=O)(=O)CCN2C	7.489	-13.46
Cc1cc(C(=O)N2CCC3(CC(=O)NC3=O)C2)c(-c2ccccc2)o1 (configuration not stated)	-54.8	-2.125
CCc1nc(C2CCCN(C(=O)c3cccc(Cl)c3)C2)no1 (configuration not stated)	-	-6.782
[H][C@]12CN(Cc3ccccc3Cl)CCN1C(=O)N(Cc1ccccc1)C2	-	-2.216
CC(C)CC(NC(=O)c1cnn(C)c1)C(=O)Nc1cc[nH]n1 (configuration not stated)	16.28	9.47

Repeated from the top, 5 entries:

With CCN1C(=O)C2(CCOCC2)c2cc(NC(=O)c3cccn3C)ccc21 the screen gave A: -8.485%; B: 7.619%.
With COc1ccc(C(=O)Nc2cccc(SC)c2)c(OC)n1 the screen gave A: -31.78%; B: 14.36%.
With O=C(COc1ccc2c(c1)CCCC2=O)NCc1ccco1 the screen gave A: -34.51%; B: -5.582%.
With Cc1cc(NC(=O)CN(C)C2CCCN(c3cccnn3)C2)on1 (configuration not stated) the screen gave A: 0.4226%; B: -66.48%.
With Cc1cc(C)c(CNC(=O)N(C)CC2CCCCO2)c(=O)[nH]1 (configuration not stated) the screen gave B: -6.69%.

The values are deposited in ChEMBL (CHEMBL3988442, “University of Dundee, Small-Polar-MMV Screening Library” (2021)).